This passage reports binding results from PMC12759081.

The chains behind the UniProt entries cited, without tags or fusion partners.
UniProt Q96FF9: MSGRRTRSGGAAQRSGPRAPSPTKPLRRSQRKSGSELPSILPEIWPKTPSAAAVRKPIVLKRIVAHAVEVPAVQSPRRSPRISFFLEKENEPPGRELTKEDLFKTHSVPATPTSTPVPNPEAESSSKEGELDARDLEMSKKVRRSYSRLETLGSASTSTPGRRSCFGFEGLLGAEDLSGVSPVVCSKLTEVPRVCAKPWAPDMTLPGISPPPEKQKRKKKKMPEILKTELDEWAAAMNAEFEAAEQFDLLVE
UniProt O60216: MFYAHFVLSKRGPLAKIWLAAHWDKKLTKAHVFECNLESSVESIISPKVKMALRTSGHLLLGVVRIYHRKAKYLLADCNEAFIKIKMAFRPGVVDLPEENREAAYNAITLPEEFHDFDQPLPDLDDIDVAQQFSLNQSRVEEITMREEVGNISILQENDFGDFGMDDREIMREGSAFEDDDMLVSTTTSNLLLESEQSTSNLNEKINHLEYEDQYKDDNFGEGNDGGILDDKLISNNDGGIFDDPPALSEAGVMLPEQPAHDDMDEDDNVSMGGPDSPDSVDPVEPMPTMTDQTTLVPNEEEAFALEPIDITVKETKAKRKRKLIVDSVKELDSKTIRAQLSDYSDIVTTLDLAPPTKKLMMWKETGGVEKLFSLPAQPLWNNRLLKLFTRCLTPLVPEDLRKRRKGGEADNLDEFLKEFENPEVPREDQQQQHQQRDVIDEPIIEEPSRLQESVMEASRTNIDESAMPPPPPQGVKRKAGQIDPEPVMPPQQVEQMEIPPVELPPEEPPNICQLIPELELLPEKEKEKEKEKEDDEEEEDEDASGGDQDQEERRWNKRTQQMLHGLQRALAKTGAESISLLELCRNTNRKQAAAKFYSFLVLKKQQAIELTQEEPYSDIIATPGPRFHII
UniProt Q9UQE7: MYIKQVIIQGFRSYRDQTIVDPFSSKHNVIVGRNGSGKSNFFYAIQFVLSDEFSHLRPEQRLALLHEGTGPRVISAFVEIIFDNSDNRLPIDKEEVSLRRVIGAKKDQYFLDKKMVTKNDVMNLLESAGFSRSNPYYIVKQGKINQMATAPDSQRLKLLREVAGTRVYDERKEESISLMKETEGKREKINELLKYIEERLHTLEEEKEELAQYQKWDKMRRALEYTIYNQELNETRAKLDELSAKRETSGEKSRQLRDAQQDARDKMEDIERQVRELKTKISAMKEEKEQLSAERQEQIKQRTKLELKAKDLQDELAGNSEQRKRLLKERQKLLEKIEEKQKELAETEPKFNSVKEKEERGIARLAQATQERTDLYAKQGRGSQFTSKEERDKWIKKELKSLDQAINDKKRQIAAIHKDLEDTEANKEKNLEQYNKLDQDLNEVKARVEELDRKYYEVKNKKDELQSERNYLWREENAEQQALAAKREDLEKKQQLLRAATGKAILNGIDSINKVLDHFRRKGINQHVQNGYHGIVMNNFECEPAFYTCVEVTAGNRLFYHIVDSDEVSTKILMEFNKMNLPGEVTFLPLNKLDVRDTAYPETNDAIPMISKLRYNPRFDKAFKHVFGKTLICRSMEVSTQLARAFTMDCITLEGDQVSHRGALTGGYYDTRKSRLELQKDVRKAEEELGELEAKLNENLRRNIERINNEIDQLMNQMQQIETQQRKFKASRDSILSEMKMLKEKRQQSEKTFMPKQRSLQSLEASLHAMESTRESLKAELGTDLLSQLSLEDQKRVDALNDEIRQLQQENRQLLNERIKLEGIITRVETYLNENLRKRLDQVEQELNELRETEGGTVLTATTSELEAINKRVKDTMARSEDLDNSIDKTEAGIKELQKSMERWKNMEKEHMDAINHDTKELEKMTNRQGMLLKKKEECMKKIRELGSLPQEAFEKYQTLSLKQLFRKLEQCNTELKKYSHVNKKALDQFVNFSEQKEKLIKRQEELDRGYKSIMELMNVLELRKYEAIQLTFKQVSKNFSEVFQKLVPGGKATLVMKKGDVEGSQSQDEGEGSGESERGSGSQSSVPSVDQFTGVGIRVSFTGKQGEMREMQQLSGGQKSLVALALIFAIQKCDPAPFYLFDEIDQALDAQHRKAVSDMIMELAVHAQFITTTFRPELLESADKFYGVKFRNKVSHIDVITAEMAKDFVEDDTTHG

For this assay, the target named is Flag-Sororin (human) (UniProt Q96FF9). Description: affinity purification with mass spectrometry; Flag-Sororin overexpressed in HEK293F cells, precipitated with anti-Flag M2 agarose (4 h, 4 °C), eluted with Flag peptide, eluate analysed by mass spectrometry.

These are yes or no findings as the source states them, for the method shown. Binding seen in cells or lysates may run through a third protein. These calls come from enrichment with a bait or labelling near it, and not all partners need be listed.

As to RAD21 (from UniProt O60216 1-631), the binding entry is given as “binds”.
Regarding SMC3 (from UniProt Q9UQE7 1-1217), the binding result was “binds”.
